# Assay results from the supplement of paper PMC12819154, “High-throughput peptide-centric local stability assay extends protein–ligand identification to membrane proteins, tissues and bacteria” (Nature Structural & Molecular Biology, 2025).
# The chains behind the UniProt entries cited, without tags or fusion partners. Where a name states a change or a piece, a line headed by the entry shows the natural chain unless it says otherwise.
# UniProt Q8IVN3: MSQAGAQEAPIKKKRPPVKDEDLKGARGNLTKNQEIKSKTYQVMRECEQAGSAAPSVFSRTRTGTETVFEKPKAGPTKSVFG
# UniProt Q8IVH8: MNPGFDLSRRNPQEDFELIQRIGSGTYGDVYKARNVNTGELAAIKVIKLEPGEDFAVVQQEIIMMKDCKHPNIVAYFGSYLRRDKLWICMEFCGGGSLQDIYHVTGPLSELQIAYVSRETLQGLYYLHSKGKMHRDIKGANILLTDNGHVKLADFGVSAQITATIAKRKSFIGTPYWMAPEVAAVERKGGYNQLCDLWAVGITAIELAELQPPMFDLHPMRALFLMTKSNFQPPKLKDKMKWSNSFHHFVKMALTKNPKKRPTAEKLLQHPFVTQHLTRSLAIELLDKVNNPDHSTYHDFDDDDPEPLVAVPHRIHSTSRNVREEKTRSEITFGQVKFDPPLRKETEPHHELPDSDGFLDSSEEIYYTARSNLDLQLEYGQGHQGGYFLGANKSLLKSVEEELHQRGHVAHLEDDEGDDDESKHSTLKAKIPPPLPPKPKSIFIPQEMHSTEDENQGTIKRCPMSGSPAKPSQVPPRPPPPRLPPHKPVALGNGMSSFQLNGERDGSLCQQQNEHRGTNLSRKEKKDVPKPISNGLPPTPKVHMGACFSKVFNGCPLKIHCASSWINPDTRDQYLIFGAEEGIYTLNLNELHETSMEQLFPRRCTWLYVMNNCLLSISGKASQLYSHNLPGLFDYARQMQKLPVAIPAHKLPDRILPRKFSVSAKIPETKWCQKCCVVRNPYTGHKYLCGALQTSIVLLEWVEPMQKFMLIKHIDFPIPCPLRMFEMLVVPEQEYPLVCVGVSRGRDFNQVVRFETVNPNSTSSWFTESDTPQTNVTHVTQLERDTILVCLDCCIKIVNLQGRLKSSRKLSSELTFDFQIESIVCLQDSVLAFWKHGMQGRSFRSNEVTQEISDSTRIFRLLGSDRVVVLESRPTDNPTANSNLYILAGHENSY
# UniProt Q8N264: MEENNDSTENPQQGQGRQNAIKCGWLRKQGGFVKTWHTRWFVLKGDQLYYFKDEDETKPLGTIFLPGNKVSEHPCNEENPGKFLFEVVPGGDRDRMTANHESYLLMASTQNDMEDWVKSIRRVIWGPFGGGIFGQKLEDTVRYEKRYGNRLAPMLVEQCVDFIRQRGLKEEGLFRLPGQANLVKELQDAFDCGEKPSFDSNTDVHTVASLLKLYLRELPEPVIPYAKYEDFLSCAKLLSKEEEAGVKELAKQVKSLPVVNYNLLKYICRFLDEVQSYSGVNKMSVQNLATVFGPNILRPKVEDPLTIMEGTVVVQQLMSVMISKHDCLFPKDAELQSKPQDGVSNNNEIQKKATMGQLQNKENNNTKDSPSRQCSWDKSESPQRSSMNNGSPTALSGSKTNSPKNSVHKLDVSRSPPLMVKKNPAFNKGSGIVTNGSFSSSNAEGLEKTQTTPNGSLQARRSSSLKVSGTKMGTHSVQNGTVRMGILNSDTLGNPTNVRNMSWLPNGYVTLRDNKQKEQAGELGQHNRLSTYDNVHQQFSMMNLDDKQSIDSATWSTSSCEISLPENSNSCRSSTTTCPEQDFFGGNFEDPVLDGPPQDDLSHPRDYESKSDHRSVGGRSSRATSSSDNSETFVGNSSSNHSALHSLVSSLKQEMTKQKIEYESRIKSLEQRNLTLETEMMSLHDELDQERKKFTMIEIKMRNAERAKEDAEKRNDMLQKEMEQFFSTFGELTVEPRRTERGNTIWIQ
# UniProt Q8IZ21: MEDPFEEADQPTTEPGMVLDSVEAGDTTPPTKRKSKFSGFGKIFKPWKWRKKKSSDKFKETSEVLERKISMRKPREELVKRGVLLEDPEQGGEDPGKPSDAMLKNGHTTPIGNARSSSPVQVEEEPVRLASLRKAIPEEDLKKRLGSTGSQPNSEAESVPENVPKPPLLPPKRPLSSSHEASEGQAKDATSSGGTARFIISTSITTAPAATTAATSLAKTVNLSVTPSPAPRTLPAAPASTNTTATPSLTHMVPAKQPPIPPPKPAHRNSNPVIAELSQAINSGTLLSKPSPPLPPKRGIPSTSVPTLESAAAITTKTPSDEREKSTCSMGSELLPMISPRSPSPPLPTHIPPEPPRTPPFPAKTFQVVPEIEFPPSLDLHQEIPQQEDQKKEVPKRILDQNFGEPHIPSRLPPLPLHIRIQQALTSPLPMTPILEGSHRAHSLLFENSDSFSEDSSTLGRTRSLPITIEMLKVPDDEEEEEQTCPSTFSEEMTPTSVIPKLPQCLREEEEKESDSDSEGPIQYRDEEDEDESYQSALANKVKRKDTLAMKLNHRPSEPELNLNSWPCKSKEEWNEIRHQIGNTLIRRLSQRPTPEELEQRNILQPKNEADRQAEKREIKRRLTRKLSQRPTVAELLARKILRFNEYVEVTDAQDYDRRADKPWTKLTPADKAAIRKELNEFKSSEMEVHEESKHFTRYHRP
# UniProt Q86YD1: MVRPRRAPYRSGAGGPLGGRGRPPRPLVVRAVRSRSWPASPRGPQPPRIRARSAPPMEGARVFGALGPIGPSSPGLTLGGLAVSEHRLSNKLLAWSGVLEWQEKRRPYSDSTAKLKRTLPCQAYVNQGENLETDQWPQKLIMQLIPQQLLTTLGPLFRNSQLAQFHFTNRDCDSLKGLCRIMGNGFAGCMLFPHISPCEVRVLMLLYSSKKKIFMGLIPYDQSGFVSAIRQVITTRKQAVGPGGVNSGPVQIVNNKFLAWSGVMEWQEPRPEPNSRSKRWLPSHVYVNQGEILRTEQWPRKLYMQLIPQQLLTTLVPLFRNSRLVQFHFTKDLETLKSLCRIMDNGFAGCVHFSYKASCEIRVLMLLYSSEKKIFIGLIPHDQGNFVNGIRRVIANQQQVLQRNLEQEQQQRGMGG
# UniProt Q8IWZ8: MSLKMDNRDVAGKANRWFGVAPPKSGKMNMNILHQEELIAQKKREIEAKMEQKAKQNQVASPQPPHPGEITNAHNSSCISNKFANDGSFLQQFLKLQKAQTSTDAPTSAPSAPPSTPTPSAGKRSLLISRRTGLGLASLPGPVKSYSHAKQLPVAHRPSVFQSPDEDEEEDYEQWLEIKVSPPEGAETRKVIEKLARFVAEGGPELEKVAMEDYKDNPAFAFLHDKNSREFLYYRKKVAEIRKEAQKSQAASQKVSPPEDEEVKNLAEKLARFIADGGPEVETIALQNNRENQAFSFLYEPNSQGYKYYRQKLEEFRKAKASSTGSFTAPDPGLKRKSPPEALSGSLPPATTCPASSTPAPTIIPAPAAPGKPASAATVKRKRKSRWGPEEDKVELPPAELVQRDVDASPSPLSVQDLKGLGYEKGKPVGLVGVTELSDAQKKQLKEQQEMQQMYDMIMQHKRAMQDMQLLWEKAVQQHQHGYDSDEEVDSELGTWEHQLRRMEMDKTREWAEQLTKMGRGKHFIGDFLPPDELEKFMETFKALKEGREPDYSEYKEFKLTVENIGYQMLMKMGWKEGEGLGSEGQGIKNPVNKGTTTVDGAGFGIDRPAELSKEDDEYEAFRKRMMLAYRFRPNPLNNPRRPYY
# UniProt Q8IWT0: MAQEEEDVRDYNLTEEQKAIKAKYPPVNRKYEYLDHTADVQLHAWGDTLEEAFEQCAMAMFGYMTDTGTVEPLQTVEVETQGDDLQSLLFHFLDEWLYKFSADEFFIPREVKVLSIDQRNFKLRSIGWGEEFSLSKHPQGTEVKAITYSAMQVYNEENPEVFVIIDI
# UniProt Q86Y91: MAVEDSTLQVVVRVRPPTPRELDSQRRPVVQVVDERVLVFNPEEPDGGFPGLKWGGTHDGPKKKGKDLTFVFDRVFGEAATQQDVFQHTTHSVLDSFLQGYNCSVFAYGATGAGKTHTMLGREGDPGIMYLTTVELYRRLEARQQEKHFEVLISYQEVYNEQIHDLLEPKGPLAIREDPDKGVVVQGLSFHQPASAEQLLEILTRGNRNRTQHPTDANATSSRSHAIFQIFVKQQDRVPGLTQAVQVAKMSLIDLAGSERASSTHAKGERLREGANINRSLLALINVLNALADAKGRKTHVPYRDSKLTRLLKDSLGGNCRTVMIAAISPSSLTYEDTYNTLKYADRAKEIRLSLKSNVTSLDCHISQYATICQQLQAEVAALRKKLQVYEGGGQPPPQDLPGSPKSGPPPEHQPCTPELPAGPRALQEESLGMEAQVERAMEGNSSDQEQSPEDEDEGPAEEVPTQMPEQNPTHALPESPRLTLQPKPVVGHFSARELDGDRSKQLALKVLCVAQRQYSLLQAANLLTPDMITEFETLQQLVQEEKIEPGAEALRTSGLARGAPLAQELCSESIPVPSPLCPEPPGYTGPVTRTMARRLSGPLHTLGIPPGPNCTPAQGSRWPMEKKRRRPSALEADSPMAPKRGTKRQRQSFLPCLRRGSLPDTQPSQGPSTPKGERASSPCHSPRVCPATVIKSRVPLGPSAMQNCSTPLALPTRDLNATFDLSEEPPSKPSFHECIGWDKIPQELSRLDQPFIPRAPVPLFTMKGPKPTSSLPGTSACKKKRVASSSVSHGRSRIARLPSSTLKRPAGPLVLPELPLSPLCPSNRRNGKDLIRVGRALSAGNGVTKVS
# UniProt Q86WH2: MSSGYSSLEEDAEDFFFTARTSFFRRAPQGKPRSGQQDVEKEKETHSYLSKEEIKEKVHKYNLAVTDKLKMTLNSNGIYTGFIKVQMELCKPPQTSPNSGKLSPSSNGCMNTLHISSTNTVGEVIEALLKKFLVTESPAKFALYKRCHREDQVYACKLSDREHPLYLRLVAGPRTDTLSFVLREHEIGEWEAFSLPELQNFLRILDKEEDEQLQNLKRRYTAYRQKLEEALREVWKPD
# UniProt Q8IZL2, whole entry: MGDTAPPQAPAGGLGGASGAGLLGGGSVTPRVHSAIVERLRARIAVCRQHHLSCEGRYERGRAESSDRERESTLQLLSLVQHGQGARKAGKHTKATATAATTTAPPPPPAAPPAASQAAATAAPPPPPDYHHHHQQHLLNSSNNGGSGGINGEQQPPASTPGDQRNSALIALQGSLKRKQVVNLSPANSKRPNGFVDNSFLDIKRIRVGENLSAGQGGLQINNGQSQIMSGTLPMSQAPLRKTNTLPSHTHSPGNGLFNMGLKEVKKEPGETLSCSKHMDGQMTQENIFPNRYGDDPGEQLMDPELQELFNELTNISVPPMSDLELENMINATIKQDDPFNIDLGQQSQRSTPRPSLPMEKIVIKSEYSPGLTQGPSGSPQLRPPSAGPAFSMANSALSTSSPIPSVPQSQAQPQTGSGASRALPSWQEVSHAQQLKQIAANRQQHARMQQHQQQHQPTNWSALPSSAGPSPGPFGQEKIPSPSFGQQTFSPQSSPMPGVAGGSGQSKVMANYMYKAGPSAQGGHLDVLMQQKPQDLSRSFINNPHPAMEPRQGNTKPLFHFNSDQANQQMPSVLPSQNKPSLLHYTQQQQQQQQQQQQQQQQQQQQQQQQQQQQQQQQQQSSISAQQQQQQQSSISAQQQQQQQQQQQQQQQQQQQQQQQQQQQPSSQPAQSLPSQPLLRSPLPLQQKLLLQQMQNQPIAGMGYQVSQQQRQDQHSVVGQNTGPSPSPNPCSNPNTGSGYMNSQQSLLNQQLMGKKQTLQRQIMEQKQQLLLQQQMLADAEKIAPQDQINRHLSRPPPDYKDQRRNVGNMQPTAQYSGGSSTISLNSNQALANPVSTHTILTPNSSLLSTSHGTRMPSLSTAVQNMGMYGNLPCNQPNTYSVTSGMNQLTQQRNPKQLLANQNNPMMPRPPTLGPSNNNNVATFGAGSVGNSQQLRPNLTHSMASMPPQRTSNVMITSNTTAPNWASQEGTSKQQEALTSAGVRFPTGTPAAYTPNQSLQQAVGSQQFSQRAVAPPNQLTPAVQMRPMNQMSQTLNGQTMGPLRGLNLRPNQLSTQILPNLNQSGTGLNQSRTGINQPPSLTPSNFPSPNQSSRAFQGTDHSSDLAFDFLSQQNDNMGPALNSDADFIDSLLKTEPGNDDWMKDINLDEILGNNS
# UniProt Q8IY67: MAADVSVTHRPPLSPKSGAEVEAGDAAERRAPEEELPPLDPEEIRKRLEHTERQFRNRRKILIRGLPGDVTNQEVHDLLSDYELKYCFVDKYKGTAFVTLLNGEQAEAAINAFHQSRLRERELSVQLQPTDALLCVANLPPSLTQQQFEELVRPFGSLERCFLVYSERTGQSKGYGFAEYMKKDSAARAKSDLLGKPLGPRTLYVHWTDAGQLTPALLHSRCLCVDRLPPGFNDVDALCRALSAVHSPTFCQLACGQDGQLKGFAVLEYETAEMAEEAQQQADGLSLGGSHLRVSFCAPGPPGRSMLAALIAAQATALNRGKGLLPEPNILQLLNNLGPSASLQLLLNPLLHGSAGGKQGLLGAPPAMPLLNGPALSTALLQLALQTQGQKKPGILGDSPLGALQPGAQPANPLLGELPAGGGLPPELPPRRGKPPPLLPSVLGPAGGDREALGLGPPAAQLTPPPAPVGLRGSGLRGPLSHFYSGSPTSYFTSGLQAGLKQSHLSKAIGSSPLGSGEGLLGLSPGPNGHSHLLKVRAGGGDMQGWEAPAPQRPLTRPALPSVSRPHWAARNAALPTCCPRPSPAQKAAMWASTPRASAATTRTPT
# Some of the results follow. Most values lie at the level of the controls, where differences are scatter.
# Compound: CN[C@@H]1C[C@H]2O[C@@](C)([C@@H]1OC)n1c3ccccc3c3c4c(c5c6ccccc6n2c5c31)C(=O)NC4 [staurosporine]
# Test: log2 fold change of tryptic peptide abundance, ligand vs vehicle (limited proteolysis) (log2 ratio); higher = more trypsin-susceptible (destabilized)
# Details: ligand concentration: 20 uM; sample: K562 cleared lysate; digestion: 4 min, 22 C (HT-PELSA RT4min, Orbitrap Astral)
row,Target,log2 fold change
1,"YAF2 (peptide sequence: RQPKPSSDEGYWDCSVCTFR, peptide start residue: 12) (UniProt Q8IY57)",-0.607
2,"UniProt Q8IVN3 (peptide sequence: SQAGAQEAPIKK, peptide start residue: 2)",-0.164
3,"VRK3 (peptide sequence: QSPQTLKR, peptide start residue: 135) (UniProt Q8IV63)",0.691
4,"CUL9 (peptide sequence: MLQALAAHDAGSR, peptide start residue: 189) (UniProt Q8IWT3)",-0.395
5,"MAP4K3 (peptide sequence: LLQHPFVTQHLTR, peptide start residue: 267) (UniProt Q8IVH8)",-1.05
6,"UniProt Q8IXH7 (peptide sequence: ACQALGAMLSK, peptide start residue: 292)",0.693
7,"ARHGAP24 (peptide sequence: SLPVVNYNLLK, peptide start residue: 255) (UniProt Q8N264)",-0.188
8,"VPS8 (peptide sequence: AVVGLSGDASKR, peptide start residue: 530) (UniProt Q8N3P4)",-0.787
9,"EXOC8 (peptide sequence: MNLMTPEALGK, peptide start residue: 578) (UniProt Q8IYI6)",0.899
10,"PHACTR4 (peptide sequence: RPLSSSHEASEGQAK, peptide start residue: 173) (UniProt Q8IZ21)",0.419
11,"UniProt Q8IW45 (peptide sequence: LHALVVGPGLGRDDALLR, peptide start residue: 145)",-1.08
12,"CCDC117 (peptide sequence: REEEEDDDCPVR, peptide start residue: 73) (UniProt Q8IWD4)",-0.796
13,"MIER1 (peptide sequence: KPLHADMDTNGYETDNLTTDPK, peptide start residue: 435) (UniProt Q8N108)",0.527
14,"HOMER1 (peptide sequence: NKDLEGQLSDLEQR, peptide start residue: 298) (UniProt Q86YM7)",0.42
15,"PTOV1 (peptide sequence: WLPSHVYVNQGEILR, peptide start residue: 280) (UniProt Q86YD1)",0.366
16,"LRRC47 (peptide sequence: VLHVSENPVPLTVRVSPEVR, peptide start residue: 311) (UniProt Q8N1G4)",0.511
17,"PARG (peptide sequence: STQYLNQHQTAAMCK, peptide start residue: 142) (UniProt Q86W56)",-0.161
18,"NUP93 (peptide sequence: LSPATENKLR, peptide start residue: 363) (UniProt Q8N1F7)",0.522
19,"UniProt Q8IWZ8 (peptide sequence: EGREPDYSEYKEFK, peptide start residue: 546)",-0.294
20,"ZBTB8OS (peptide sequence: DYNLTEEQK, peptide start residue: 10) (UniProt Q8IWT0)",0.0439
21,"KIF18B (peptide sequence: RPSALEADSPMAPK, peptide start residue: 631) (UniProt Q86Y91)",-0.624
22,"UniProt Q8N3L3 (peptide sequence: HRELQQK, peptide start residue: 302)",-0.135
23,"RASSF3 (peptide sequence: TDTLSFVLR, peptide start residue: 175) (UniProt Q86WH2)",0.24
24,"MAML2 (peptide sequence: QQLLLQQQMLADAEK, peptide start residue: 769) (UniProt Q8IZL2)",0.264
25,"RAVER1 (peptide sequence: AADVSVTHRPPLSPK, peptide start residue: 2) (UniProt Q8IY67)",0.373
26,"UniProt Q86Y56 (peptide sequence: LILSTLKK, peptide start residue: 439)",0.401

# 2 records picked at random from the list so far, as already listed:
row,Target,log2 fold change
18,"NUP93 (peptide sequence: LSPATENKLR, peptide start residue: 363) (UniProt Q8N1F7)",0.522
25,"RAVER1 (peptide sequence: AADVSVTHRPPLSPK, peptide start residue: 2) (UniProt Q8IY67)",0.373
